According to publication PMC6333334:
Results are given in words; binding and its absence hold for the method and conditions named. Some binding calls cover weakened binding; strength is not graded here.

Biological target: T1, Drosophila Crumbs bait: C-terminal-most extracellular EGF-like repeat, transmembrane domain and cytoplasmic tail (aa 2034-2189), STE2-Crb-Cub-LexA-VP16 (Drosophila melanogaster) (UniProt P10040)
T1 sequence: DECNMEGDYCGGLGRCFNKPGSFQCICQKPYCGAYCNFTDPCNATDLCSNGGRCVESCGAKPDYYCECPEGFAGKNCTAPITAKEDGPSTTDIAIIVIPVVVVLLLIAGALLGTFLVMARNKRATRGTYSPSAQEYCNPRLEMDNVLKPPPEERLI
Test: two-hybrid; modified membrane yeast two-hybrid (MBmate, split ubiquitin): bait STE2-Crb-Cub-LexA-VP16, prey NubG-x from a Drosophila embryo library; screen and 1-by-1 test with two independent clones; growth on medium without tryptophan, leucine and histidine, with 3-AT

binding: binds
B1: Apnoia (CG15887), full-length prey clone of the NubG-x library (protein, UniProt Q9VFX3 1-137)
chain: MAANQKIVFALVCLFLACDLVLGQQQAANSSDSDSDVAESRTFGHHFLRRISFALVPGAFVVGVITTLLAALTVVSIKGLGVGVILLVLAIGQMLSRALPVQAAAAYAAAPVPVQAPVPVVYSHSHTQQPVWLEKEW
